The results in this text go back to patent US20220372138A1.

The target of one test is Streptavidin (UniProt P22629). The experiment in a line: scFv ELISA.
For test [1], the target named is human IGSF11 (VSIG3) expressed on cells (human) (UniProt Q5DX21). Put plainly: FACS >50% cells.
Test [2] has the same target. The experiment in a line: FACS MFI>150.
The next test has as its target T1, IGSF11-hFc (human) (UniProt Q5DX21).
T1 sequence: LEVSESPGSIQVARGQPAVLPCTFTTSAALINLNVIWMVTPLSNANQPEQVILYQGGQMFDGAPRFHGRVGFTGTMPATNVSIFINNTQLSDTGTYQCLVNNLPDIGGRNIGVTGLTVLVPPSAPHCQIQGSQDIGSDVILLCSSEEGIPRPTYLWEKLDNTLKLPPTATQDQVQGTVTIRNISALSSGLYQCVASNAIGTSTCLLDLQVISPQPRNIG
The experiment in a line: IgG1 ELISA EC50 >10 nM. On the technique in general: An ELISA detects its analyte on a solid surface through an enzyme-linked reagent.

The target in test [3] is human IGSF11 (VSIG3) expressed on cells (human) (UniProt Q5DX21). The experiment in a line: FACS staining of COLO-741 cells (endogenous IGSF11).
For test [4] the target is unchanged. The experiment in a line: FACS COLO-741.
Test [5] shares this target. Put plainly: FACS, MDA-MB-231-luc/IGSF11, soluble IGSF11-His as competitor. On the technique in general: In flow cytometry, cells or beads pass a laser one at a time.
Test [6] has the same target. Put plainly: FACS, MDA-MB-231-luc transduced with IGSF11.
Test [7] has the same target. Put plainly: flow cytometry on MDA-MB-231-luc cells transduced with IGSF11 (A) or mock transduced (B), A-006 then anti-human IgG-AF647.
For test [8] the target is unchanged. The experiment in a line: flow cytometry on MDA-MB-231-luc/IGSF11 cells, anti-human IgG Fc-AF647.
For test [9] the target is unchanged. The experiment in a line: FACS MFI 100-150.
Test [10] shares this target. The experiment in a line: FACS 35-50% cells.
Test [11] has the same target. Put plainly: FACS dot plots, IgG1-format antibody, cells treated with IGSF11 siRNA (KD) or scrambled control (SC).

Results are given in words; binding and its absence hold for the method and conditions named. Some binding calls cover weakened binding; strength is not graded here.

B1: A-024 (scFv format) (scFv, V domains shown)
VH: QMQLVQSGAEVKKPGSSVKVSCKASGGTFSSYAISWVRQAPGQGLEWMGWISAYNGNTNYAQKLQGRVTMTTDTSTSTAYMELRSLRSDDTAVYYCASLGSYGYTGAFDIWGQGTMATVSS
VL: QSALTQPASVSGSPGQSITISCTGTSSDVGGYNYVSWYQQHPGKAPKLMIYEVSNRPSGVSNRFSGSKSGNTASLTISGLQAEDEADYYCSSYTSSSTLVVFGGGTKLTVL
For the molecule B1, the binding entry with Streptavidin is reported as “no binding (tested: <0.025 or <0.05 RFU)”; in [1], “binds”; in test [2], “binds”.

B2: A-035 (IgG1 format) (antibody, V domains shown)
VH: QVQLVQSGAEVKKPGASVKVSCKASGYTFTGYYMHWVRQAPGQGLEWMGWINPNSGNTGYAQKFQGRVTMTRNTSISTAYMELSSLRSEDTAVYYCARGRLERGYWYFDLWGRGTLVTVSS
VL: NFMLTQPHSVSESPGRTVTISCTRSSGSITSNYVQWYQQRPGSAPTILIYEDKERPSEVPDRFSGSIDISSNSASLTISGLKTEDEADYYCQSYGGTSQGVLFGGGTKVTVL
Turning to B2, in the test with IGSF11-hFc (human), the binding result is on record as “binds”.

B3: A-006 (IgG1 format) (antibody, V domains shown)
VH: EVQLVESGGGLIQPGGSLRLSCAASGFTVSSNYMSWVRQAPGKGLEWVSVIYSGGSTYYADSVKGRFTISRDNSKNTLYLQMNSLRAEDTAVYYCARGNPYYYGDLQVNFDYWGQGTLVTVSS
VL: QAVVTQEPSLTVSPGGTVTLTCASSTGAVTSGYYPNWFQQKPGQAPRPLIYSTSNKHSWTPARFSGSLLGGKAALTLSGVQPDDEAEYYCLLYYGGDWVFGGGTKLTVL
Regarding B3, the binding entry in [3], in test [4], in test [5], in test [6], in test [7] and in test [8] was “binds” each time.

B4: A-022 (scFv format) (scFv, V domains shown)
VH: EVQLLESGPGLVKPSQTLSLTCTVSGGSISSGGYYWSWIRQHPGKGLEWIGYIYYSGSTYYNPSLKSRVTISVDTSKNQFSLKLSSVTAADTAVYYCARASRSTDYYFDYWGQGTLVTVSS
VL: QPGLTQPPSMSYGLGQTATLTCTGNRNNIGDQGAAWLQQHQGHPPKLLSYRNNNGPSGISERLSASRSGNTASLTISGLQPEDEADYYCSAWDSSLRAWVFGGGTKLTVL
As for B4, the results for the binding result (with Streptavidin; in test [9]; in [10]) were “no binding (tested: <0.025 or <0.05 RFU)”, “binds” and “binds”, respectively.

B5: A-004 (IgG1 format) (antibody, V domains shown)
VH: EVQLVESGGGLVKPGGSLRLSCAASGFTFSSYSMNWVRQAPGKGLEWVSSISSSSSYIYYADSVKGRFTISRDNAKNSLYLQMNSLRAEDTAVYYCARGQLLWFGESALIDAFDIWGQGTMVTVSS
VL: EIVLTQSPSSLSASVGDRVTITCRASQSISSYLNWYQLKPGKAPKLLIYAASILQSGVPSRFSGSGSGTDFTLTISSLQPEDFAAYYCQQSYSTPRTFGQGTKLEIK
Take B5: the binding result in [11] is listed as “binds”.

B6: A-021 (scFv format) (scFv, V domains shown)
VH: QVQLVQSGAEVKKPGASVKVSCKASGYTFTSYGISWVRQAPGQGLEWMGWISAYNGNTNYAQKLQGRVTMTTDTSTSTAYMELRSLRSDDTAVYYCARVPAWSGQFDYWGQGTLVTVSS
VL: QSALTQPASVSGSPGQSITISCTGTSSDVGGYNYVSWYQQHPGKAPKLMIYEVTNRPSGVSDRFSGSKSANTASLTISELQAEDEAVYYCNSYTSGPTYVLFGGGTQLTVL
For the molecule B6, the binding result with Streptavidin is recorded as “no binding (tested: <0.025 or <0.05 RFU)”; in test [1], “binds”; in [2], “binds”.
